Assay [1] has as its system 769-P. Put plainly: AUC of dose-response viability curve, drug alone (arbitrary (AUC of normalised viability)); higher = less growth inhibition. The settings on record: treatment: drug alone; 5 days. How it is done:
(§1)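 Primary HTS: 8 RCC cell lines treated with 8 doses (up to 10 uM) of each library drug alone for 5 days; viability read by CellTiter-Glo and normalised to DMSO. GI50 was fitted with XLfit (4-parameter), AUC is the area under the dose-response curve, and minimum viability is the lowest fraction of DMSO viability across doses.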

The test system of assay [2] is TK-10. The assay is described as above. The settings on record: treatment: drug alone; 5 days. How it is done:
as §1

Assay [3] concerns 786-O. The description is as above. The following applies: treatment: drug alone; 5 days. How it is done: as §1
The test system of assay [4] is SN12C. Described as above. The following applies: treatment: drug alone; 5 days. The method, then: as §1
Assay [5] has as its system A498. Described as above. The settings on record: treatment: drug alone; 5 days. The method, then: as §1
The subject of assay [6] is UO-31. Described as above. The following applies: treatment: drug alone; 5 days. How it is done: as §1
Assay [7] relates to ACHN. Described as above. The settings on record: treatment: drug alone; 5 days. How it is done:
as §1

Assay [8] concerns 769-P. Put plainly: GI50, drug alone; higher = less potent. The settings on record: treatment: drug alone; 5 days. The method, then: as §1
The subject of assay [9] is TK-10. Put plainly: GI50, drug alone; higher = less potent. The settings on record: treatment: drug alone; 5 days. How it is done:
as §1

The test system of assay [10] is 786-O. The assay can be described thus: GI50, drug alone; higher = less potent. The settings on record: treatment: drug alone; 5 days. How it is done:
as §1

Assay [11] relates to SN12C. The assay can be described thus: GI50, drug alone; higher = less potent. The following applies: treatment: drug alone; 5 days. How it is done: as §1
Assay [12] relates to CAKI-1. The assay can be described thus: GI50, drug alone; higher = less potent. The settings on record: treatment: drug alone; 5 days. How it is done: as §1
The test system of assay [13] is A498. The assay can be described thus: GI50, drug alone; higher = less potent. The settings on record: treatment: drug alone; 5 days. How it is done:
as §1

Assay [14] has as its system UO-31. Put plainly: GI50, drug alone; higher = less potent. The settings on record: treatment: drug alone; 5 days. How it is done:
as §1

Assay [15] has as its system ACHN. The assay can be described thus: GI50, drug alone; higher = less potent. The following applies: treatment: drug alone; 5 days. The method, then:
as §1

For assay [16], the system named is 769-P. The assay can be described thus: minimum viability across doses, drug alone, relative to DMSO (fraction); higher = less growth inhibition. The following applies: treatment: drug alone; 5 days. The method, then: as §1
The subject of assay [17] is TK-10. The assay is described as above. The following applies: treatment: drug alone; 5 days. The method, then: as §1
Assay [18] concerns 786-O. The description is as above. The settings on record: treatment: drug alone; 5 days. The method, then: as §1
The test system of assay [19] is SN12C. The description is as above. The settings on record: treatment: drug alone; 5 days. The method, then: as §1
Assay [20] relates to CAKI-1. Described as above. The following applies: treatment: drug alone; 5 days. The method, then:
as §1

The test system of assay [21] is A498. The assay is described as above. The following applies: treatment: drug alone; 5 days. The method, then:
as §1

For assay [22], the system named is UO-31. The description is as above. The following applies: treatment: drug alone; 5 days. The method, then:
as §1

In assay [23] the test system is ACHN. The assay is described as above. The following applies: treatment: drug alone; 5 days. The method, then: as §1
Assay [24] deals with 769-P. Put plainly: GI50 of drug in presence of dasatinib; higher = less potent. The following applies: treatment: drug + dasatinib (fixed dose, not stated); 5 days. How it is done:
(§2)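 Primary HTS combination arm: 8 RCC cell lines treated with 8 doses (up to 10 uM) of each library drug plus a fixed dose of dasatinib (dose not stated) for 5 days; viability read by CellTiter-Glo and normalised to DMSO. GI50 was fitted with XLfit, AUC is the area under the dose-response curve, and minimum viability is the lowest fraction of DMSO viability across doses.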

For assay [25], the system named is TK-10. Described as above. The settings on record: treatment: drug + dasatinib (fixed dose, not stated); 5 days. The method, then:
as §2

Assay [26] relates to 786-O. The assay is described as above. The settings on record: treatment: drug + dasatinib (fixed dose, not stated); 5 days. How it is done:
as §2

Assay [27] has as its system SN12C. Described as above. The following applies: treatment: drug + dasatinib (fixed dose, not stated); 5 days. How it is done: as §2
In assay [28] the test system is CAKI-1. Described as above. The following applies: treatment: drug + dasatinib (fixed dose, not stated); 5 days. How it is done:
as §2

Assay [29] relates to A498. The description is as above. The following applies: treatment: drug + dasatinib (fixed dose, not stated); 5 days. How it is done:
as §2

The subject of assay [30] is UO-31. The assay is described as above. The settings on record: treatment: drug + dasatinib (fixed dose, not stated); 5 days. The method, then:
as §2

Assay [31] deals with ACHN. Described as above. The following applies: treatment: drug + dasatinib (fixed dose, not stated); 5 days. How it is done: as §2
Assay [32] has as its system 769-P. The assay can be described thus: AUC of dose-response viability curve, drug + dasatinib, normalised to DMSO (arbitrary (AUC of normalised viability)); higher = less growth inhibition. The settings on record: treatment: drug + dasatinib (fixed dose, not stated); 5 days. How it is done: as §2
Assay [33] has as its system TK-10. The description is as above. The following applies: treatment: drug + dasatinib (fixed dose, not stated); 5 days. How it is done:
as §2

The subject of assay [34] is SN12C. The description is as above. The settings on record: treatment: drug + dasatinib (fixed dose, not stated); 5 days. The method, then:
as §2

Assay [35] has as its system A498. The description is as above. The settings on record: treatment: drug + dasatinib (fixed dose, not stated); 5 days. The method, then: as §2
The test system of assay [36] is UO-31. Described as above. The following applies: treatment: drug + dasatinib (fixed dose, not stated); 5 days. The method, then: as §2
The subject of assay [37] is ACHN. Described as above. The following applies: treatment: drug + dasatinib (fixed dose, not stated); 5 days. How it is done: as §2
Assay [38] relates to 769-P. Put plainly: minimum viability across doses, drug + dasatinib, relative to DMSO (fraction); higher = less growth inhibition. The settings on record: treatment: drug + dasatinib (fixed dose, not stated); 5 days. How it is done: as §2
In assay [39] the test system is TK-10. The assay is described as above. The following applies: treatment: drug + dasatinib (fixed dose, not stated); 5 days. How it is done: as §2
Assay [40] relates to 786-O. The assay is described as above. The following applies: treatment: drug + dasatinib (fixed dose, not stated); 5 days. The method, then:
as §2

Assay [41] deals with SN12C. Described as above. The following applies: treatment: drug + dasatinib (fixed dose, not stated); 5 days. How it is done: as §2
Assay [42] has as its system CAKI-1. The description is as above. The following applies: treatment: drug + dasatinib (fixed dose, not stated); 5 days. The method, then:
as §2

The subject of assay [43] is A498. Described as above. The following applies: treatment: drug + dasatinib (fixed dose, not stated); 5 days. How it is done: as §2
Assay [44] relates to UO-31. The description is as above. The following applies: treatment: drug + dasatinib (fixed dose, not stated); 5 days. How it is done: as §2
The test system of assay [45] is ACHN. The assay is described as above. The following applies: treatment: drug + dasatinib (fixed dose, not stated); 5 days. The method, then: as §2

Consider `Cc1ccccc1-n1c(Cn2nc(-c3cccc(O)c3)c3c(N)ncnc32)nc2cccc(C)c2c1=O` [PIK-294], for which the “AUC of dose-response viability curve” value with 769-P [1] was found to be 3.34; in the assay on TK-10 [2], 3.21; in the assay on 786-O [3], 2.77; in the assay with SN12C [4], 3.47; with A498 [5] it was 3.98; in the assay on UO-31 [6] it was 5.65. Moreover, the “AUC of dose-response viability curve” value with ACHN [7] stood at 3.28. Moreover, the “GI50, drug alone” value in the assay on 769-P [8], with TK-10 [9], in the assay on 786-O [10], in the assay with SN12C [11], in the assay on CAKI-1 [12] and in the assay on A498 [13] was > 10 µM throughout. For the same compound, the “GI50, drug alone” value with UO-31 [14] and with ACHN [15] was > 10 µM throughout. The “minimum viability across doses” value in the assay on 769-P [16] was determined as 0.882; with TK-10 [17] it was 0.703; with 786-O [18] it was 0.689; in the assay with SN12C [19], 0.897; in the assay with CAKI-1 [20], 0.598; in the assay with A498 [21], 0.845. Besides, the “minimum viability across doses” value in the assay on UO-31 [22] worked out at 1.28; in the assay with ACHN [23] it was 0.561.

Turning to `Cc1ccccc1-n1c(Cn2nc(-c3cccc(O)c3)c3c(N)ncnc32)nc2cccc(C)c2c1=O` [PIK-294] + Cc1nc(Nc2ncc(C(=O)Nc3c(C)cccc3Cl)s2)cc(N2CCN(CCO)CC2)n1 [dasatinib], the GI50 of drug in the assay on 769-P [24] was 3.67 µM; with TK-10 [25], > 10 µM; in the assay on 786-O [26], 1.01 µM; with SN12C [27] it was > 10 µM; in the assay on CAKI-1 [28], 1.27 µM; in the assay with A498 [29], > 10 µM. For the same compound, the GI50 of drug with UO-31 [30] amounted to 9.93 µM; in the assay on ACHN [31], 1.28 µM. In addition, the “AUC of dose-response viability curve” value in the assay with 769-P [32] stood at 2.35; in the assay on TK-10 [33], 2.54; in the assay on SN12C [34] it was 2.47; with A498 [35], 3.32; in the assay on UO-31 [36] it was 3.99; with ACHN [37] it was 2.09. Further, the “minimum viability across doses” value was 0.333 in the assay with 769-P [38]; 0.647 in the assay with TK-10 [39]; 0.367 with 786-O [40]; 0.645 in the assay on SN12C [41]; 0.273 with CAKI-1 [42]; 0.826 in the assay on A498 [43]. Moreover, the figures for the “minimum viability across doses” value in the assay with UO-31 [44] and in the assay on ACHN [45] were 0.495 and 0.36, respectively.

The record behind these values is the supplement of paper PMC8149375.
